This is an account of results in PubChem BioAssay AID290 (DTP/NCI, 2004).

The test concerns mice, P1798 lymphosarcoma sc, survival or tumor weight T/C. Kind of test: NCI In Vivo Anticancer Drug Screen. Data for tumor model P1798 Lymphosarcoma (subcutaneous) in unknown mice. On the procedure: The antitumor activity of compounds was measured in mice bearing transplantable tumors. Survival or tumor size were measured and the results are expressed as the measurement made in the treated group (T) divided by the measurement made in the vehicle treated control group (C). The tumor model used in this assay is P1798 Lymphosarcoma (subcutaneous) in unknown mice

Where [1] appears, read: T/C endpoint: mean tumor weight, dose: 20.0 mg/kg/injection, schedule: Q01DX010 (ip), vehicle: saline, higher T/C = larger tumour.
Setting [2] is: T/C endpoint: mean tumor weight, dose: 50.0 mg/kg/injection, schedule: Q01DX010 (ip), vehicle: saline, higher T/C = larger tumour.
Setting [3] is: T/C endpoint: mean tumor weight, dose: 500.0 mg/kg/injection, schedule: Q01DX010 (ip), vehicle: carboxymethylcellulose (CMC), higher T/C = larger tumour.

The list does not hold the whole screen: it gathers tests that were run many times, whatever their T/C, doses with no T/C, and many T/C values between a quarter and a half above the control. Further doses and runs are listed elsewhere. T/C gives the treated animals as a percentage of the vehicle group. Schedule codes are those of the source, taken here to give the interval after Q, in days (D) or hours (H), and the number of doses after X. Some doses have a count of surviving animals in place of a T/C: the source files T/C as zero there, which appears to mark a toxic dose or a test without result, not a measured value. Some survivor counts are full or nearly so, which does not show that the dose was tolerated: survival well below the control is almost never listed, so the zero probably covers shortened survival too. Survivors were counted at the toxicity check, usually on the fifth day, unless a day is given; later deaths do not show. Marks such as (2×) stand for listed records that agree. Some doses were run more than once; the results are listed from low to high. Where survival is the endpoint, the PubChem record calls one and a half times the control and up active, and a quarter to a half above the control has no call in these data; cut-offs in other NCI protocols can differ.

Consider `O=c1[nH]cc(F)c(=O)[nH]1`, for which the T/C reads like this: (T/C endpoint: mean tumor weight, dose: 5.0 mg/kg/injection, schedule: Q01DX015 (ip), vehicle: carboxymethylcellulose (CMC), run until all animals had died, higher T/C = larger tumour) 131 % of control; (T/C endpoint: median survival time, dose: 12.5 mg/kg/injection, schedule: Q04DX007 (ip), vehicle: saline, evaluated on day 5, higher T/C = longer survival) 92 and 102 % of control; (T/C endpoint: median survival time, dose: 12.5 mg/kg/injection, schedule: Q04DX007 (ip), vehicle: saline, evaluated on day 53, higher T/C = longer survival) 102 % of control; (T/C endpoint: median survival time, dose: 12.5 mg/kg/injection, schedule: Q04DX007 (ip), vehicle: saline, evaluated on day 58, higher T/C = longer survival) 92 % of control; (T/C endpoint: median survival time, dose: 12.5 mg/kg/injection, schedule: Q04DX007 (ip), vehicle: saline, evaluated on day 60, higher T/C = longer survival) 117 % of control; (T/C endpoint: median survival time, dose: 25.0 mg/kg/injection, schedule: Q04DX007 (ip), vehicle: saline, evaluated on day 5, higher T/C = longer survival) 97 and 108 % of control. Also, the T/C was 108 % of control (T/C endpoint: median survival time, dose: 25.0 mg/kg/injection, schedule: Q04DX007 (ip), vehicle: saline, evaluated on day 53, higher T/C = longer survival); 97 % of control (T/C endpoint: median survival time, dose: 25.0 mg/kg/injection, schedule: Q04DX007 (ip), vehicle: saline, evaluated on day 58, higher T/C = longer survival); 126 % of control (T/C endpoint: median survival time, dose: 25.0 mg/kg/injection, schedule: Q04DX007 (ip), vehicle: saline, evaluated on day 60, higher T/C = longer survival); 95 and 107 % of control (T/C endpoint: median survival time, dose: 50.0 mg/kg/injection, schedule: Q04DX007 (ip), vehicle: saline, evaluated on day 5, higher T/C = longer survival); 107 % of control (T/C endpoint: median survival time, dose: 50.0 mg/kg/injection, schedule: Q04DX007 (ip), vehicle: saline, evaluated on day 53, higher T/C = longer survival); 95 % of control (T/C endpoint: median survival time, dose: 50.0 mg/kg/injection, schedule: Q04DX007 (ip), vehicle: saline, evaluated on day 58, higher T/C = longer survival). Also, the T/C runs as follows: (T/C endpoint: median survival time, dose: 50.0 mg/kg/injection, schedule: Q04DX007 (ip), vehicle: saline, evaluated on day 60, higher T/C = longer survival) 145 % of control; (T/C endpoint: median survival time, dose: 100.0 mg/kg/injection, schedule: Q04DX007 (ip), vehicle: saline, evaluated on day 5, higher T/C = longer survival) 53 and 96 % of control; (T/C endpoint: median survival time, dose: 100.0 mg/kg/injection, schedule: Q04DX007 (ip), vehicle: saline, evaluated on day 58, higher T/C = longer survival) 96 % of control; (T/C endpoint: median survival time, dose: 200.0 mg/kg/injection, schedule: Q04DX007 (ip), vehicle: saline, evaluated on day 5, higher T/C = longer survival) 29 and 96 % of control; (T/C endpoint: median survival time, dose: 200.0 mg/kg/injection, schedule: Q04DX007 (ip), vehicle: saline, evaluated on day 58, higher T/C = longer survival) 96 % of control. Further, the survivor count is 4 of 10 under setting [1]; 0 of 10 under setting [2]; 6 of 10 (T/C endpoint: mean tumor weight, dose: 159.0 mg/kg/injection, schedule: Q01DX001 (ip), vehicle: carboxymethylcellulose (CMC), higher T/C = larger tumour); 8 of 8 (T/C endpoint: median survival time, dose: 20.0 mg/kg/injection, schedule: Q01DX010 (ip), vehicle: saline, higher T/C = longer survival); 8 of 8 (T/C endpoint: median survival time, dose: 40.0 mg/kg/injection, schedule: Q01DX010 (ip), vehicle: saline, higher T/C = longer survival); 8 of 8 (T/C endpoint: median survival time, dose: 80.0 mg/kg/injection, schedule: Q01DX010 (ip), vehicle: saline, higher T/C = longer survival). The survivor count is, setting by setting: (T/C endpoint: median survival time, dose: 100.0 mg/kg/injection, schedule: Q04DX007 (ip), vehicle: saline, higher T/C = longer survival) 10 of 10 (2×); (T/C endpoint: median survival time, dose: 200.0 mg/kg/injection, schedule: Q04DX007 (ip), vehicle: saline, higher T/C = longer survival) 10 of 10 (2×).

On to `Clc1ncnc2nc[nH]c12`, for which the survivor count is recorded as 2 of 10 under setting [3] and 0 of 10 (T/C endpoint: mean tumor weight, dose: 1000.0 mg/kg/injection, schedule: Q01DX010 (ip), vehicle: carboxymethylcellulose (CMC), higher T/C = larger tumour).

Regarding `COC1=C(N)C(=O)c2nc(-c3nc(C(=O)O)c(C)c(-c4ccc(OC)c(OC)c4O)c3N)ccc2C1=O`, the survivor count is given as 1 of 6 (T/C endpoint: mean tumor weight, dose: 0.06 mg/kg/injection, schedule: Q01DX010 (ip), vehicle: saline, higher T/C = larger tumour); 0 of 6 (T/C endpoint: mean tumor weight, dose: 0.09 mg/kg/injection, schedule: Q01DX010 (ip), vehicle: saline, higher T/C = larger tumour); 0 of 6 (T/C endpoint: mean tumor weight, dose: 0.13 mg/kg/injection, schedule: Q01DX010 (ip), vehicle: saline, higher T/C = larger tumour); 0 of 10 (T/C endpoint: mean tumor weight, dose: 0.2 mg/kg/injection, schedule: Q01DX010 (ip), vehicle: other, higher T/C = larger tumour); 0 of 6 (T/C endpoint: mean tumor weight, dose: 0.2 mg/kg/injection, schedule: Q01DX010 (ip), vehicle: saline, higher T/C = larger tumour); 0 of 10 (T/C endpoint: mean tumor weight, dose: 0.4 mg/kg/injection, schedule: Q01DX010 (ip), vehicle: other, higher T/C = larger tumour). The survivor count (T/C endpoint: mean tumor weight, dose: 0.8 mg/kg/injection, schedule: Q01DX010 (ip), vehicle: other, higher T/C = larger tumour) is reported as 0 of 10.

Take `CCCCn1cnc2c(=S)nc[nH]c21`: the T/C (T/C endpoint: mean tumor weight, dose: 25.0 mg/kg/injection, schedule: Q01DX010 (ip), vehicle: carboxymethylcellulose (CMC), evaluated on day 14, higher T/C = larger tumour) is 134 % of control. Further, the survivor count (T/C endpoint: mean tumor weight, dose: 200.0 mg/kg/injection, schedule: Q01DX010 (ip), vehicle: carboxymethylcellulose (CMC), higher T/C = larger tumour) was 0 of 10.

For `CCn1cnc2c(=S)nc[nH]c21`, the survivor count (T/C endpoint: mean tumor weight, dose: 125.0 mg/kg/injection, schedule: Q01DX010 (ip), vehicle: carboxymethylcellulose (CMC), higher T/C = larger tumour) was 2 of 10.

For the compound `CC/C(=C(/CC)c1ccc(O)cc1)c1ccc(O)cc1`, the survivor count reads like this: (T/C endpoint: mean tumor weight, dose: 125.0 mg/kg/injection, schedule: Q01DX010 (sc), vehicle: steroid suspending solution, higher T/C = larger tumour) 3 of 10; (T/C endpoint: mean tumor weight, dose: 250.0 mg/kg/injection, schedule: Q01DX010 (sc), vehicle: steroid suspending solution, higher T/C = larger tumour) 0 of 10 and 5 of 10; (T/C endpoint: mean tumor weight, dose: 500.0 mg/kg/injection, schedule: Q01DX010 (sc), vehicle: steroid suspending solution, higher T/C = larger tumour) 0 of 10; (T/C endpoint: mean tumor weight, dose: 1000.0 mg/kg/injection, schedule: Q01DX010 (sc), vehicle: steroid suspending solution, higher T/C = larger tumour) 0 of 10.

For `C[C@H](N)C(=O)N[C@@H]1[C@H]2C(=C(O)C[C@@H](O)[C@@H]2O)C(=O)O[C@@H]1C`, the survivor count (T/C endpoint: mean tumor weight, dose: 1000.0 mg/kg/injection, schedule: Q01DX010 (ip), vehicle: saline, higher T/C = larger tumour) was 6 of 10.

On to `O=C(O)c1ccc(-c2ccccc2)cc1`, for which, under setting [3], the survivor count is 0 of 10.

For `CN(N=O)C(N)=O`, the survivor count under setting [2] is 0 of 10.

`Cn1cnc([N+](=O)[O-])c1Sc1nc(N)nc2nc[nH]c12`: under setting [1], the survivor count is listed as 0 of 6.

Regarding `N[C@@H](Cc1ccc(N(CCCl)CCCl)cc1)C(=O)O`, the survivor count (T/C endpoint: mean tumor weight, dose: 8.0 mg/kg/injection, schedule: Q01DX011 (ip), vehicle: carboxymethylcellulose (CMC), higher T/C = larger tumour) was 0 of 10; the survivor count (T/C endpoint: mean tumor weight, dose: 12.0 mg/kg/injection, schedule: Q01DX011 (ip), vehicle: carboxymethylcellulose (CMC), higher T/C = larger tumour) was 0 of 10; the survivor count (T/C endpoint: median survival time, dose: 3.0 mg/kg/injection, schedule: Q01DX010 (sc), vehicle: saline, higher T/C = longer survival) was 10 of 10; the survivor count (T/C endpoint: median survival time, dose: 6.0 mg/kg/injection, schedule: Q01DX010 (sc), vehicle: saline, higher T/C = longer survival) was 10 of 10; the survivor count (T/C endpoint: median survival time, dose: 12.0 mg/kg/injection, schedule: Q01DX010 (sc), vehicle: saline, higher T/C = longer survival) is 10 of 10.

Consider `C[C@]12CCC(=O)C=C1CC[C@H]1[C@@H]3CC[C@](O)(C(=O)CO)[C@@]3(C)C[C@H](O)[C@@]12F`, for which the T/C (T/C endpoint: mean tumor weight, dose: 10.0 mg/kg/injection, schedule: Q01DX015 (ip), vehicle: carboxymethylcellulose (CMC), run until all animals had died, higher T/C = larger tumour) is 140 % of control. Moreover, the survivor count (T/C endpoint: mean tumor weight, dose: 14.0 mg/kg/injection, schedule: Q01DX011 (sc), vehicle: steroid suspending solution, higher T/C = larger tumour) is listed as 4 of 10; the survivor count (T/C endpoint: mean tumor weight, dose: 21.0 mg/kg/injection, schedule: Q01DX011 (sc), vehicle: steroid suspending solution, higher T/C = larger tumour) was 0 of 10; the survivor count (T/C endpoint: mean tumor weight, dose: 28.0 mg/kg/injection, schedule: Q01DX011 (sc), vehicle: steroid suspending solution, higher T/C = larger tumour) is given as 0 of 10.

For `O=C(Nc1ccc(C2=NCCN2)cc1)c1ccc(C(=O)Nc2ccc(C3=NCCN3)cc2)c(Cl)c1`, the T/C (T/C endpoint: mean tumor weight, dose: 6.3 mg/kg/injection, schedule: Q01DX010 (ip), vehicle: water, evaluated on day 14, higher T/C = larger tumour) is 141 % of control. The survivor count runs as follows: (T/C endpoint: mean tumor weight, dose: 25.0 mg/kg/injection, schedule: Q01DX010 (ip), vehicle: water, higher T/C = larger tumour) 5 of 10; (T/C endpoint: mean tumor weight, dose: 50.0 mg/kg/injection, schedule: Q01DX010 (ip), vehicle: water, higher T/C = larger tumour) 1 of 10.

For the compound `NC(Cc1ccc(N(CCCl)CCCl)cc1)C(=O)O` (centres undefined), the T/C (T/C endpoint: mean tumor weight, dose: 2.5 mg/kg/injection, schedule: Q01DX010 (ip), vehicle: carboxymethylcellulose (CMC), evaluated on day 14, higher T/C = larger tumour) was 127 % of control. Where the note is “T/C endpoint: mean tumor weight, dose: 2.5 mg/kg/injection, schedule: Q01DX010 (ip), vehicle: saline, higher T/C = larger tumour”, the survivor count is listed as 2 of 6.
